“Also recorded” adds a separate entry of the source.
Experiments:
S. cebuensis [1] = assay: Elicitor screening, supernatants on E. coli cultures (OD600 nm); type: cell-based, Saccharopolyspora cebuensis; conditions: S. cebuensis grown with elicitor, supernatant on E. coli
Protocol: Wild-type S. cebuensis cultures were transferred to 96 well-plates and each well was robotically supplemented with a compound from a commercial small molecule library as a source of elicitors. […] To grow the cells, the plates were incubated for a defined period. […] The OD600 nm from each well was normalized and the % E. coli growth thus obtained was plotted as a function of each elicitor, allowing one to identify at least one elicitor corresponding to a second activity greater than the first activity.

S. cebuensis [2] = conditions: S. cebuensis cultures treated with elicitor
S. hiroshimensis = assay: Elicitor screening, supernatants in liquid bioassay against E. coli; type: cell-based, Streptomyces hiroshimensis; conditions: S. hiroshimensis grown with ~33 μM elicitor; supernatant on E. coli, OD600 nm
Protocol: For the high-throughput-elicitor screening portion of this example, the procedure is described for S. hiroshimensis. An identical procedure was used for S. lavendulae and A. keratiniphila. […] The culture was incubated at 30° C./250 rpm for two days. Then, the mycelia cell mass was pelleted by centrifugation, the supernatant discarded, and a stock solution of 100 mg/mL cell mass was generated in R4 medium. The stock solution was used to prepare the appropriate volume (see below) of R4 medium containing 0.5 mg/mL mycelia cell mass in a 250 mL Erlenmeyer flask. The suspension was homogenized by stirring at room temperature. Subsequently, a MultiFlow Dispenser (from Biotek, Inc.) was used to dispense 150 μL of the suspension into each well of six sterile round bottom 96 well plates (from Corning, Inc.). […]
From the elicitor plates, after culturing for 5 days, the plates were spun down in a 96-well plate centrifuge and the supernatants (10 μL) transferred to fresh 96-well assay plates, each well containing 100 μL LB-E. coli culture, with the E. coli cells inoculated to an initial OD600 nm OD600 nm of 0.002. The assay plates were cultured at 37° C./200 rpm overnight (10-12 h) and OD600 nm was then determined using a plate reader. […]

S. hiroshimensis A18 = conditions: 33 μM atenolol vs DMSO control

Compound | effect of elicitor-induced metabolome on E. coli growth (S. cebuensis [1]) | induction of secondary metabolites (HPLC-MS profiling) (S. cebuensis [2]) | effect of elicitor-induced metabolome on E. coli growth (S. hiroshimensis) | induction of secondary metabolites (HPLC-MS peaks) (S. hiroshimensis A18)
NS(=O)(=O)c1cc(C(=O)O)c(NCc2ccco2)cc1Cl [furosemide] | inhibited it | appearance of several induced metabolites | – | –
CC(C)NCC(O)COc1ccc(CC(N)=O)cc1 (stereo not shown) [atenolol] | – | – | inhibited E. coli growth best; also recorded: most effective at inhibiting E. coli | numerous new peaks induced

Reference: patent publication US12436145B2, “Cryptic antibiotics and methods for detecting bioactive cryptic metabolites” (THE TRUSTEES OF PRINCETON UNIVERSITY, priority 2019, dated 2025)
